{
  "source": "PubChem BioAssay AID298",
  "about": "(DTP/NCI, 2004)",
  "system": "MX-1 breast xenograft, intrarenal, nude mice, tumor weight",
  "test": "NCI In Vivo Anticancer Drug Screen. Data for tumor model Human Mammary Carcinoma MX-1 Xenograft (intrarenal inoculation) in NU/NU BALB/C (nude) mice",
  "details": "T/C endpoint: mean tumor weight change, higher T/C = larger tumour; for T/C: evaluated on day 11",
  "how_it_was_run": "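Mice w/ transplanted tumors, drug vs vehicle; endpoint survival or tumor size; value = T/C.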",
  "note": "The list shows only some results of the screen, not a fair sample: it is rich in T/C values a quarter to a half above the control, in often repeated tests (any T/C) and in doses without a T/C. Further doses and runs are listed elsewhere. T/C gives the treated animals as a percentage of the vehicle group. Schedules are NCI's codes, taken here to give the interval after Q, in days (D) or hours (H), and the number of doses after X. Some doses have a count of surviving animals in place of a T/C: the source files T/C as zero there, which appears to mark a toxic dose or a test without result, not a measured value. Survivors were counted at the toxicity check, usually on the fifth day, unless a day is given; later deaths do not show. Some entries were tested several times; their values stand side by side, smallest first. Some molecules as drawn cover several salts, stereoisomers or complexes of the source; a dose is that of the sample tested.",
  "data": [
    {"smiles": "CNC(=O)OCc1nc(SC)n(C)c1COC(=O)NC", "values": [
      {"measurement": "survivor count", "setting": "dose: 200.0 mg/kg/injection, schedule: Q04DX003 (ip), vehicle: suspension in saline", "result": "0 of 6 on day 11 and 1 of 6 on day 11"},
      {"measurement": "survivor count", "setting": "dose: 230.0 mg/kg/injection, schedule: Q04DX003 (ip), vehicle: saline", "result": "0 of 6 on day 11"},
      {"measurement": "survivor count", "setting": "dose: 400.0 mg/kg/injection, schedule: Q04DX003 (ip), vehicle: suspension in saline", "result": "0 of 6 on day 11"}
    ]},
    {"smiles": "CCN(CC)CC(C)(C)C(=O)/C=C/c1ccc(/C=C/C(=O)C(C)(C)CN(CC)CC)cc1", "values": [
      {"measurement": "T/C", "setting": "dose: 15.0 mg/kg/injection, schedule: Q04DX003 (ip), vehicle: saline", "result": "144 % of control"},
      {"measurement": "T/C", "setting": "dose: 30.0 mg/kg/injection, schedule: Q04DX003 (ip), vehicle: saline", "result": "125 % of control"},
      {"measurement": "survivor count", "setting": "dose: 120.0 mg/kg/injection, schedule: Q04DX003 (ip), vehicle: saline", "result": "0 of 6 on day 11"}
    ]},
    {"smiles": "ClCCCN1CCCCC1CCl", "note": "(centres undefined)", "values": [
      {"measurement": "survivor count", "setting": "dose: 50.0 mg/kg/injection, schedule: Q04DX003 (sc), vehicle: saline", "result": "0 of 6 on day 11"}
    ]},
    {"smiles": "Nc1ccn([C@@H](C=O)C[C@@H](C=O)CO)c(=O)n1", "values": [
      {"measurement": "survivor count", "setting": "dose: 300.0 mg/kg/injection, schedule: Q04DX003 (ip), vehicle: saline", "result": "2 of 6 on day 11"},
      {"measurement": "survivor count", "setting": "dose: 600.0 mg/kg/injection, schedule: Q04DX003 (ip), vehicle: saline", "result": "0 of 6 on day 11"}
    ]},
    {"smiles": "O=C1c2cccc(NCCCNCCO)c2C(=O)c2cccc(NCCCNCCO)c21", "values": [
      {"measurement": "survivor count", "setting": "dose: 75.0 mg/kg/injection, schedule: Q04DX003 (ip), vehicle: acid diluted with saline", "result": "1 of 6 on day 11"},
      {"measurement": "survivor count", "setting": "dose: 150.0 mg/kg/injection, schedule: Q04DX003 (ip), vehicle: acid diluted with saline", "result": "0 of 6 on day 11"}
    ]},
    {"smiles": "CCCCNc1ccc2nnc(C)n2n1", "values": [
      {"measurement": "survivor count", "setting": "dose: 600.0 mg/kg/injection, schedule: Q04DX003 (ip), vehicle: DMSO", "result": "0 of 6 on day 11"},
      {"measurement": "survivor count", "setting": "dose: 1200.0 mg/kg/injection, schedule: Q04DX003 (ip), vehicle: DMSO", "result": "0 of 6 on day 11"}
    ]},
    {"smiles": "Cc1ccoc1", "values": [
      {"measurement": "survivor count", "setting": "dose: 400.0 mg/kg/injection, schedule: Q01DX010 (ip), vehicle: saline with Tween-80", "result": "0 of 6 on day 11"}
    ]},
    {"smiles": "C[C@@]1(CO)[C@H](O)CC[C@@]2(C)[C@H]1CC[C@H]1C[C@@H]3C[C@@]12CC[C@@]3(O)COC(=O)CN", "values": [
      {"measurement": "survivor count", "setting": "dose: 200.0 mg/kg/injection, schedule: Q04DX003 (ip), vehicle: saline + alcohol", "result": "2 of 6 on day 11"},
      {"measurement": "survivor count", "setting": "dose: 400.0 mg/kg/injection, schedule: Q04DX003 (ip), vehicle: saline + alcohol", "result": "0 of 6 on day 11"}
    ]},
    {"smiles": "CCCCCCCC1C(=O)OC2CC3C(C)=CC(=O)C(O)C3(C)C3C4(O)OCC23C1C(C)C4O", "note": "(centres undefined)", "values": [
      {"measurement": "survivor count", "setting": "dose: 80.0 mg/kg/injection, schedule: Q04DX003 (ip), vehicle: Klucel (hydroxypropylcellulose) (HPC)", "result": "0 of 6 on day 11"}
    ]},
    {"smiles": "N#Cc1c(-c2ccc(F)cc2)c(-c2ccc(F)cc2)nn(CCO)c1=O", "values": [
      {"measurement": "T/C", "setting": "dose: 50.0 mg/kg/injection, schedule: Q04DX003 (ip), vehicle: distilled water + Tween-80", "result": "145 % of control"},
      {"measurement": "survivor count", "setting": "dose: 800.0 mg/kg/injection, schedule: Q04DX003 (ip), vehicle: distilled water + Tween-80", "result": "2 of 6 on day 11"}
    ]},
    {"smiles": "O=c1[nH]cc(F)c(=O)[nH]1", "values": [
      {"measurement": "survivor count", "setting": "dose: 75.0 mg/kg/injection, schedule: Q04DX003 (ip), vehicle: saline", "result": "0 of 6 on day 11"},
      {"measurement": "survivor count", "setting": "dose: 112.0 mg/kg/injection, schedule: Q04DX003 (ip), vehicle: saline", "result": "0 of 6 on day 11"}
    ]},
    {"smiles": "COc1c2c(c(O)c3c4c(c(C)cc13)C1OC3(C(OC)OC5CC(C)(O)C(OC6CC(C)(O)C(O)C(C)O6)C(C)O5)OC1C(OC)(O4)C31CO1)C(=O)C(O)CC2OC1CC(C)(O)C(OC(C)=O)C(C)O1", "note": "(centres undefined)", "values": [
      {"measurement": "survivor count", "setting": "dose: 0.5 mg/kg/injection, schedule: Q04DX003 (ip), vehicle: saline", "result": "1 of 6 on day 11 and 2 of 6 on day 11"},
      {"measurement": "survivor count", "setting": "dose: 1.0 mg/kg/injection, schedule: Q04DX003 (ip), vehicle: saline", "result": "0 of 6 on day 11"}
    ]},
    {"smiles": "CS(C)=O", "values": [
      {"measurement": "T/C", "setting": "dose: 1500.0 mg/kg/injection, schedule: Q01DX010 (sc), vehicle: saline", "result": "144 % of control"},
      {"measurement": "T/C", "setting": "dose: 6000.0 mg/kg/injection, schedule: Q01DX010 (sc), vehicle: saline", "result": "127 % of control"}
    ]},
    {"smiles": "CC1OC2CC(O)C1(O)C1=C2C(O)=C(C(N)=O)C(=N)C1=O", "note": "(centres undefined)", "values": [
      {"measurement": "survivor count", "setting": "dose: 5.0 mg/kg/injection, schedule: Q04DX003 (ip), vehicle: saline", "result": "2 of 5 on day 11"}
    ]},
    {"smiles": "O=C1N[C@H]2[C@H](O)[C@H](O)[C@@H](O)[C@H](O)[C@@H]2c2cc3c(c(O)c21)OCO3", "values": [
      {"measurement": "T/C", "setting": "dose: 6.25 mg/kg/injection, schedule: Q04DX003 (ip), vehicle: saline + alcohol", "result": "126 % of control"},
      {"measurement": "survivor count", "setting": "dose: 25.0 mg/kg/injection, schedule: Q04DX003 (ip), vehicle: saline + alcohol", "result": "3 of 6 on day 11"},
      {"measurement": "survivor count", "setting": "dose: 50.0 mg/kg/injection, schedule: Q04DX003 (ip), vehicle: saline + alcohol", "result": "0 of 6 on day 11"}
    ]}
  ]
}
